Taken from: PubChem BioAssay AID504764 (Drosophila RNAi Screening Center, 2011)
In all, the deposit lists about 22,000 reagents; below is a random part of those that have a named target and a result. Over the whole deposit, 403 (1.9%) got an active call. 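Unnormalised raw counts per well; ratio z-scores behind the hit calls and whether each hit raises or lowers signal are not deposited.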 Unmarked entries are inactive. Reagents against one gene are numbered here. Not given: the amount of reagent.

Test: 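Genes whose knock-down alters Notch-dependent transcription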 (primary screen)
Cell system: Drosophila Kc167 cells
Reagents: long dsRNA against Drosophila genes
Duration: about 5 days (4 days dsRNA, then 24 h after transfection)
Challenge: transfection of constitutively active membrane-tethered Notch lacking the extracellular domain, read 24 h later
Read-out: 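Light from a Notch-responsive E(spl)m3 luciferase reporter under active Notch, with control-promoter and no-Notch reporter wells to normalise; raw counts from paired wells a and b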
Direction: induced reporter light, run 1, well a and induced reporter light, run 1, well b: higher = more light from the Notch target reporter with active Notch; control promoter light, run 1, well a and control promoter light, run 1, well b: higher = more light from the viral control promoter (cell number, transfection, viability); uninduced reporter light, run 1, well a: higher = more light from the Notch target reporter without active Notch
Call rule: 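Hit if the duplicate-averaged log2 ratio of induced to control-promoter light gives a plate-wise z beyond ±2, or induced to uninduced beyond ±1.8; weak-control or discordant-duplicate wells dropped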
Meaning of the calls: active = modifier hit (raised or lowered Notch signal); inactive = not a hit

gene knocked down	dsRNA no.	induced reporter light, run 1, well a	induced reporter light, run 1, well b	control promoter light, run 1, well a	control promoter light, run 1, well b	uninduced reporter light, run 1, well a
CG34330 (GeneID 2768869)	1	99975	87335	83795	1.31e5	11155
sut3 (GeneID 44268)	1	2.08e5	1.86e5	1.97e5	1.62e5	14675
CG7509 (GeneID 38579)	1	1.74e5	1.09e5	91020	40760	13442
CG5504 (GeneID 48844)	1	1.63e5	1.91e5	1.66e5	1.88e5	15540
CG34253 (GeneID 5740501)	1	2.08e5	1.63e5	2.56e5	3.46e5	15920
CG18518 (GeneID 34932)	1	64840	58295	65645	55130	7885
dmt (GeneID 41180)	1	60530	57245	69195	57050	3725
E2f2 (GeneID 35381)	1	1.64e5	2.49e5	1.48e5	1.76e5	14370
unc-4 (GeneID 32757)	1	1.07e5	79570	1.02e5	1.09e5	13685
CG5402 (GeneID 43306)	1	1.28e5	75405	1.59e5	1.08e5	11855
Wdr62 (GeneID 33367)	1	1.17e5	1.07e5	1.64e5	1.40e5	9045
Wdr62 (GeneID 33367)	2	1.32e5	1.06e5	1.73e5	2.00e5	11985
Wdr62 (GeneID 33367)	3	45540	42075	24200	29360	9455
svp (GeneID 41491)	1	1.40e5	1.26e5	1.34e5	1.20e5	9095
svp (GeneID 41491)	2	65085	64330	73085	46380	4260
svp (GeneID 41491)	3	1.33e5	1.38e5	1.79e5	1.08e5	6985
CG33500 (GeneID 2768957)	1	1.53e5	1.53e5	1.15e5	1.06e5	16135
CD98hc (GeneID 40941)	1	76875	1.02e5	1.01e5	76480	5960
CG31606 (GeneID 318842)	1	1.59e5	1.50e5	1.71e5	1.35e5	10600
pyd3 (GeneID 40916)	1	1.60e5	1.53e5	92565	91720	12040

3 entries from above, ordered by “control promoter light, run 1, well a”, highest first.
gene knocked down	dsRNA no.	induced reporter light, run 1, well a	induced reporter light, run 1, well b	control promoter light, run 1, well a	control promoter light, run 1, well b	uninduced reporter light, run 1, well a
Wdr62 (GeneID 33367)	2	1.32e5	1.06e5	1.73e5	2.00e5	11985
Wdr62 (GeneID 33367)	1	1.17e5	1.07e5	1.64e5	1.40e5	9045
CG5402 (GeneID 43306)	1	1.28e5	75405	1.59e5	1.08e5	11855
